Assay results reported in US20070065875A1.
These are yes or no findings as the source states them, for the method shown. Binding seen in cells or lysates may run through a third protein. Some results given as binding are weak or reduced against the parent protein; the word gives no strength.

Chains of the proteins cited; added tags and fusions are not shown. Lines headed by an entry give the natural chain unless they say otherwise; changes in a name come on top.
UniProt P29350: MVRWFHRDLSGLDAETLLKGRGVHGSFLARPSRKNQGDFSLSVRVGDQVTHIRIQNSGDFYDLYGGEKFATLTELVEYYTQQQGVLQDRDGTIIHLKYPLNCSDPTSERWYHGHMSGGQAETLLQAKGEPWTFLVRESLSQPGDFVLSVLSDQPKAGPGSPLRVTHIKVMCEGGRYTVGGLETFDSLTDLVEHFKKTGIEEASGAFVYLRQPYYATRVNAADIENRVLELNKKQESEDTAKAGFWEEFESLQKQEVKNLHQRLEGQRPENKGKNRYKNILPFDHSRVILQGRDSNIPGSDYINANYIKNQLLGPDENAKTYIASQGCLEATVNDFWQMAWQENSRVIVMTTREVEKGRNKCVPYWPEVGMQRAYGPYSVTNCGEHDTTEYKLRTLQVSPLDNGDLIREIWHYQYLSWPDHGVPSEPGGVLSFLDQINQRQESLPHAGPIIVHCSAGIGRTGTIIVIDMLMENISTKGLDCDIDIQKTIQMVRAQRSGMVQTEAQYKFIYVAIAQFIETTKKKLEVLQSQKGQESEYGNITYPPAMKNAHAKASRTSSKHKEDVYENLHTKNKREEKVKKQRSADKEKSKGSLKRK
UniProt Q96DU3: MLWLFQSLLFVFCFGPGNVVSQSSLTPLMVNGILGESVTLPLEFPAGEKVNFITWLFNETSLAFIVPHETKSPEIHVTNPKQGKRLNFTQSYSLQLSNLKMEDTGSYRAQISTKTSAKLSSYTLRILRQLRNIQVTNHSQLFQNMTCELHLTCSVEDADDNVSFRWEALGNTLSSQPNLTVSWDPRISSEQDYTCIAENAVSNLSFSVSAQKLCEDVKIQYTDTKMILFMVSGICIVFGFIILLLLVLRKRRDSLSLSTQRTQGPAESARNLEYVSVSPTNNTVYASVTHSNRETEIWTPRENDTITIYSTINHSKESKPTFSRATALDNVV

Experiments:
[1] = biological target: SHP-1 (human) (UniProt P29350); test: co-immunoprecipitation, result restated in the discussion
[2] = biological target: SHP-1 (human) (UniProt P29350); test: co-immunoprecipitation from untreated NK cell lysates, anti-SHP-1 western blot

binding [1]: binds
binding [2]: binds
Substance: NTB-A (NK-T-B-antigen) (from UniProt Q96DU3 22-332) (receptor)
